Experiment in all cases: SEC; analytical size-exclusion chromatography of the recombinant MIK2 ectodomain mutants; both purified
A general note: SEC sorts molecules by how far they enter the pores of the column.

Protein sequences, listed by entry. Tags and fused reporters are not part of them. Lines headed by an entry give the natural chain unless they say otherwise; changes in a name come on top. Chains listed by the source or under a name are the forms on record and can include a tag or linker.
MIK2 ectodomain S292A/H316A (S7 binding pocket double mutant) (Q8VZG8, form named): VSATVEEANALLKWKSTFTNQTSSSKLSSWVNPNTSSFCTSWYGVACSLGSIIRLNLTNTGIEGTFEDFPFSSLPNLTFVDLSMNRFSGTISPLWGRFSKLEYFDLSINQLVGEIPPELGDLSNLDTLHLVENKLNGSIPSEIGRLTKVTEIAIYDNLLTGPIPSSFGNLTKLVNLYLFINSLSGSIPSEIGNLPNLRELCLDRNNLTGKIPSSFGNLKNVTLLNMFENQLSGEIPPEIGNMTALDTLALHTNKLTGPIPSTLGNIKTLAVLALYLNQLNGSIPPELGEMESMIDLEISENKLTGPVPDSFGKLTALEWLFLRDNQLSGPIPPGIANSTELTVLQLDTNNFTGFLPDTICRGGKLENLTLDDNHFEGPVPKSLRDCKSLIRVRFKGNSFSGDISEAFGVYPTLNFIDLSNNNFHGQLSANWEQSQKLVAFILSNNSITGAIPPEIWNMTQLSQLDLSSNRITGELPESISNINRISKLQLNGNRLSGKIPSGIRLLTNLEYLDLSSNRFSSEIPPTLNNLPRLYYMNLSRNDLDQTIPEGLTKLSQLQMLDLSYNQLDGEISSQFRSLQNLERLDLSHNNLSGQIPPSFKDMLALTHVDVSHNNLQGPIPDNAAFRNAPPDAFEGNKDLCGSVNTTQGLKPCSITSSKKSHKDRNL
MIK2 ectodomain D246G/N268A (S5 binding pocket double mutant) (Q8VZG8, form named): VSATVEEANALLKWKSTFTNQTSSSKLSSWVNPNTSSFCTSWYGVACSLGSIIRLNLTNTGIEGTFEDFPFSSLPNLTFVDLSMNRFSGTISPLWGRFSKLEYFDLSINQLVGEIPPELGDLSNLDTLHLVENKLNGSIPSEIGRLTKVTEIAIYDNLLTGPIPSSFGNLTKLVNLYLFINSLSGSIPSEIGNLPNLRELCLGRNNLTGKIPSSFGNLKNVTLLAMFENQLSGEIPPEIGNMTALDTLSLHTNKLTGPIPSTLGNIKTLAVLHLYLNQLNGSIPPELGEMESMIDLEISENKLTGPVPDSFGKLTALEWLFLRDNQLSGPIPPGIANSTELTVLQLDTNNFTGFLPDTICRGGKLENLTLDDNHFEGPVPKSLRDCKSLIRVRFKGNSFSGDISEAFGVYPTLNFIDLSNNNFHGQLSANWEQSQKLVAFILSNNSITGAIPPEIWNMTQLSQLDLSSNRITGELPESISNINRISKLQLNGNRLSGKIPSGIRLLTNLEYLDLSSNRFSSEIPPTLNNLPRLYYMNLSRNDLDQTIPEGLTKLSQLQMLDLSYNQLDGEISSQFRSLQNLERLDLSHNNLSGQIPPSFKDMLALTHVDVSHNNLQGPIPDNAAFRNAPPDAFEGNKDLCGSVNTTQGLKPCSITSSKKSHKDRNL
MIK2 ectodomain S292A (S7 binding pocket variant) (Q8VZG8, form named): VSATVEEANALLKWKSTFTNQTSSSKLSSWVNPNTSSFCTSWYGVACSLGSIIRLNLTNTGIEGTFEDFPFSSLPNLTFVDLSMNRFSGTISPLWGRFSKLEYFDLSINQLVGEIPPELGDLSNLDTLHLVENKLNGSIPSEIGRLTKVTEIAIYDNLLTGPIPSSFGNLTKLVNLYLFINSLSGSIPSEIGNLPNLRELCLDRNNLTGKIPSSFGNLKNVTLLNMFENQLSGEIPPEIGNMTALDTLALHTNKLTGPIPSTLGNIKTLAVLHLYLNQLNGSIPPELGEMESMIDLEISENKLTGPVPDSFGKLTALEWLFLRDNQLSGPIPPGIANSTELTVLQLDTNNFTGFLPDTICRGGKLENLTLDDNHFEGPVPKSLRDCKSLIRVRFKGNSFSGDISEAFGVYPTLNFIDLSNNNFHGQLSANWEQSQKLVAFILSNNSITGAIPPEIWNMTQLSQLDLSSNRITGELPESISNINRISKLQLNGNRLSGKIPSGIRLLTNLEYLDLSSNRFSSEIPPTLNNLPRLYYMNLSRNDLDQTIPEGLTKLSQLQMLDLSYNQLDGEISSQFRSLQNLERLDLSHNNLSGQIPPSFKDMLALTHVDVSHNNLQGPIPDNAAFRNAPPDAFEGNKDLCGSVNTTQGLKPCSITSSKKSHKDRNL
MIK2 ectodomain D246G (S5 binding pocket variant) (Q8VZG8, form named): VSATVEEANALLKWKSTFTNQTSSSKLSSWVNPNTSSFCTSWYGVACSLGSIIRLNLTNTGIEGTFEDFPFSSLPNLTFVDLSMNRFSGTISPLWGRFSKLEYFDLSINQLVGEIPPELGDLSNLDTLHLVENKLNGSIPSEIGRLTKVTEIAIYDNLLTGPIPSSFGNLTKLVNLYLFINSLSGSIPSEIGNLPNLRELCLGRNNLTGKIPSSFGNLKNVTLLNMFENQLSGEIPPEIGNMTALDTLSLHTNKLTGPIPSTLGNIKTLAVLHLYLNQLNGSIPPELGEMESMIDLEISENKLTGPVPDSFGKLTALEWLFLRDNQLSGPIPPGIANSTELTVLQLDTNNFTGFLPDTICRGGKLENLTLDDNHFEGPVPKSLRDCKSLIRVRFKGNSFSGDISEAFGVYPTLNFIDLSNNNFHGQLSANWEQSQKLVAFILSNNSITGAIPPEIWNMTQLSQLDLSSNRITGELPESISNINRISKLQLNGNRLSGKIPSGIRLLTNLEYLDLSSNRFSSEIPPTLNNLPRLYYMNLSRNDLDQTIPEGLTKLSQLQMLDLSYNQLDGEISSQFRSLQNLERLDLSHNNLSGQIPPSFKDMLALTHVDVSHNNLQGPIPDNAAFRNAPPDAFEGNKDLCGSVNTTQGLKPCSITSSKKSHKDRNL

Assay [1] concerns the target MIK2 ectodomain S292A/H316A (S7 binding pocket double mutant) (Arabidopsis thaliana) (UniProt Q8VZG8).
The target in assay [2] is MIK2 ectodomain D246G/N268A (S5 binding pocket double mutant) (Arabidopsis thaliana) (UniProt Q8VZG8).
In assay [3] the target is MIK2 ectodomain S292A (S7 binding pocket variant) (Arabidopsis thaliana) (UniProt Q8VZG8).
Assay [4] addresses MIK2 ectodomain D246G (S5 binding pocket variant) (Arabidopsis thaliana) (UniProt Q8VZG8).

No constants are given. Whether binding was seen depends on the method and setting.

With “MIK2 ectodomain S292A/H316A (S7 binding pocket double mutant) (from UniProt Q8VZG8 44-709) (domain or fragment)”, the binding entry in assay [1] is listed as “no binding”.

Consider “MIK2 ectodomain D246G/N268A (S5 binding pocket double mutant) (from UniProt Q8VZG8 44-709) (domain or fragment)”, for which the binding result in assay [2] is “no binding”.

Consider “MIK2 ectodomain S292A (S7 binding pocket variant) (from UniProt Q8VZG8 44-709) (domain or fragment)”, for which the binding entry in assay [3] is recorded as “no binding”.

Turning to “MIK2 ectodomain D246G (S5 binding pocket variant) (from UniProt Q8VZG8 44-709) (domain or fragment)”, the binding result in assay [4] was “no binding”.

The values are drawn from paper PMC11331138, “Leveraging coevolutionary insights and AI-based structural modeling to unravel receptor–peptide ligand-binding mechanisms” (Proceedings of the National Academy of Sciences of the …, 2024).
